# Assay results

The results are deposited in PubChem (AID1159506; NCATS, 2015).

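Luminescence from an EWS-FLI1 target-promoter (NR0B1) reporter, set against a CMV-promoter reporter, two days after silencing single genes in TC32 Ewing sarcoma cells.
Each siRNA was applied at 20 nM.
A z-score of the log NR0B1-over-CMV signal, less the median of siRNAs with the same seed; more negative means a stronger specific loss of the NR0B1 reporter.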

The strongest results of the screen are mostly left out here.
Sequences are the guide (antisense) strand, without overhang.

For UAGUUUGUUUAACUCUUCC against CCPG1 the result was seed-corrected z-score -0.3478. ACACUAAACAGGUAUUCUC against COX7A2L gave seed-corrected z-score -0.2886. With UUGACUGUGAUGUAUAACC against KIAA1109 the assay gave seed-corrected z-score -0.3114. UCUCCAAGAAGUGUCCUCA against FOXE3 gave seed-corrected z-score 1.161. Result for UCAUGAGAGCGGAAUUUGG against SRSF9 was seed-corrected z-score -0.6782. For AUAAUGCCCAUAAACUCCU against FAM92B the result was seed-corrected z-score -0.1805.

Result for UGCUGGUCAGUACUACUCC against FAM71A was seed-corrected z-score 0.31. Result for UCAUCUAUUUGUAUCCUCC against CENPP was seed-corrected z-score -1.392. UCUGGUGUAUGCAUGGAGG against RDH8 gave seed-corrected z-score 0.3164. Result for UUUCUUUUUCCCAAUGUGC against SH3PXD2B was seed-corrected z-score -0.7671. Result for UAUAAUUGCUGCUAUAACC against ZC3H13 was seed-corrected z-score 0.007637. AGAAUGAUGAGACUGGUUC against TMEM45B read seed-corrected z-score -1.056.

UUGGGAUCUAGAUUGGACA against SLC7A5 read seed-corrected z-score -0.2419. UCUGGAAGAGAGUCUGUCC against OLFM2 gave seed-corrected z-score -0.36. CAUGUUUCCAGCACCGUCA against GGA1 gave seed-corrected z-score -0.7797. For UAACUUUUCACAGCCCGGA against GALNS the result was seed-corrected z-score 1.259. For CAGAUCAUCAGCAUCGUGG against TMEM89 the result was seed-corrected z-score -1.116. UGAGUUAUCGGAACUUGAG against TAF3 gave seed-corrected z-score 0.3274.

UUGCGAGCGACUUUGGUCU against RIMS4 gave seed-corrected z-score 0.1534. For AAAUCGUUAAGGUAGUCUG against IKZF5 the result was seed-corrected z-score 0.2817. UUUUGGGUAUCAAUUGCUC against PFKP read seed-corrected z-score 0.06691. Result for UCAUUGUGCAGUUGCUCAG against TMEM9 was seed-corrected z-score 0.4765. With AAACUGAGUAUCGAGUCUC against KNOP1 the assay gave seed-corrected z-score -1.391. With AUAAUUAUAGAAUAAGAGG against KRTAP13-1 the assay gave seed-corrected z-score -0.4243.

Result for UGCUGAUCUCUUCUCAUCC against AKAP5 was seed-corrected z-score -0.1881. UAGUAUUAGGGAGAUCUUG against MGC57346 read seed-corrected z-score 0.3859. UUGGUAUUGACGUGAAUGG against FAM98C gave seed-corrected z-score 2.895. Result for UAAAAGGCCUAAAAAUCAC against RPL21P106 was seed-corrected z-score 1.002. Result for UGCGUUUCCAUUUCAUCCG against MNX1 was seed-corrected z-score -0.1717. Result for UAUCUUGCAUGUAUUGCGC against USP47 was seed-corrected z-score -1.228.

UCUUGAACUUGGUAGCUGG against TUB gave seed-corrected z-score 0.2549. For UAGGAUAUACAGAAGUCCU against DLX6-AS1 the result was seed-corrected z-score -0.1827. Result for UCUAGAGCAAUAUUGUUGC against GALNTL6 was seed-corrected z-score -0.703. UUAUCGUCUUCAGAUUUCC against CCAR1 read seed-corrected z-score -0.133. ACAGGGAGAAAAUAAGUGG against ERI3 read seed-corrected z-score -1.709.